PubChem BioAssay AID743121 – NCATS, 2013

- Screen: 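Knock-downs that sensitise breast cancer cells to camptothecin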 (primary screen)
- System: MDA-MB-231 cells, a human breast cancer line
- Reagent: single siRNA against human genes, 20 nM siRNA (0.8 pmol per well)
- Duration: 120 h (drug added 48 h after transfection, read 72 h later)
- Challenge: camptothecin 20 nM (about EC30) for 72 h; vehicle 0.1% DMSO in parallel plates
- Measurement: 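CellTiter-Glo ATP signal, scaled to control siRNA as percent viability; sensitisation given as log2 of untreated divided by camptothecin-treated viability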
- Direction: log2 vehicle/camptothecin viability: higher = stronger sensitisation to camptothecin; viability with camptothecin: higher = more viable cells
- Units: viability with camptothecin in % of control
- Call rule: 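Each gene scored by redundant siRNA activity (RSA) over its individual siRNA ratios; a gene is called active at p < 0.001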
In all, the deposit lists about 26,000 reagents; this is a random part of them. Over the whole deposit, 167 (0.63%) got an active call. 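Calls are per gene from RSA p-values that are not deposited; an individual active-marked siRNA can sensitise only weakly.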 A number with no mark means an inactive call. Not all columns of the deposit are shown.

Silencing of CCNB1 [SID164356896] resulted in: log2 vehicle/camptothecin viability -0.146; viability with camptothecin 57.8.
For CCNB1 [SID164356897] the deposit lists log2 vehicle/camptothecin viability -0.392; viability with camptothecin 73.2.
CCNB1 [SID164356898] showed log2 vehicle/camptothecin viability -0.156; viability with camptothecin 69.
For CCNB1 [SID164356901], the entry reads log2 vehicle/camptothecin viability -0.399; viability with camptothecin 71.9.
TRA2B [SID164387761] scored log2 vehicle/camptothecin viability -0.476; viability with camptothecin 96.9.
For TRA2B [SID164387765], the values are log2 vehicle/camptothecin viability 0.278; viability with camptothecin 69.
After knock-down of TRA2B [SID164387766], the record shows log2 vehicle/camptothecin viability -0.512; viability with camptothecin 14.7.
For TRA2B [SID164387768], the entry reads log2 vehicle/camptothecin viability -0.424; viability with camptothecin 83.7.
Depletion of SNX1 [SID164389178] came out at: log2 vehicle/camptothecin viability -0.0275; viability with camptothecin 77.4.
Against SNX1 [SID164389180], the values are log2 vehicle/camptothecin viability -0.227; viability with camptothecin 104.
Depletion of SNX1 [SID164389181] gave: log2 vehicle/camptothecin viability 0.23; viability with camptothecin 69.4.
SNX1 [SID164389183] gave log2 vehicle/camptothecin viability 0.116; viability with camptothecin 72.3.
Silencing of FBXL17 [SID164504302] gave: log2 vehicle/camptothecin viability -0.0234; viability with camptothecin 108.
Knock-down of FBXL17 [SID164504304] resulted in: log2 vehicle/camptothecin viability -0.433; viability with camptothecin 8.27.
FBXL17 [SID164504308] showed log2 vehicle/camptothecin viability -0.0818; viability with camptothecin 55.2.
Knock-down of FBXL17 [SID164504309] came out at: log2 vehicle/camptothecin viability -0.313; viability with camptothecin 87.8.
KLK6 [SID164383110] gave log2 vehicle/camptothecin viability -0.131; viability with camptothecin 93.2.
Knock-down of KLK6 [SID164383111] resulted in: log2 vehicle/camptothecin viability -0.234; viability with camptothecin 101.
Against KLK6 [SID164383117], the values are log2 vehicle/camptothecin viability -0.336; viability with camptothecin 72.3.
With knock-down of DNAI1 [SID164461959], the screen gave log2 vehicle/camptothecin viability -0.374; viability with camptothecin 63.9.
DNAI1 [SID164461960] gave log2 vehicle/camptothecin viability -0.136; viability with camptothecin 80.4.
Depletion of DNAI1 [SID164461961] gave: log2 vehicle/camptothecin viability -0.11; viability with camptothecin 96.2.
Silencing of DNAI1 [SID164461963] resulted in: log2 vehicle/camptothecin viability 0.734; viability with camptothecin 29.3.
Knock-down of PROC [SID164382944] gave: log2 vehicle/camptothecin viability -0.313; viability with camptothecin 92.6.
Knock-down of PROC [SID164382945] came out at: log2 vehicle/camptothecin viability 0.0953; viability with camptothecin 53.8.
After knock-down of PROC [SID164382950], the record shows log2 vehicle/camptothecin viability -0.087; viability with camptothecin 32.3.
After knock-down of KLC4 [SID164549674], the record shows log2 vehicle/camptothecin viability -0.183; viability with camptothecin 77.4.
After knock-down of KLC4 [SID164549675], the screen gave log2 vehicle/camptothecin viability 1.04; viability with camptothecin 9.37.
For KLC4 [SID164549677], the entry reads log2 vehicle/camptothecin viability 0.0863; viability with camptothecin 57.3.
KLC4 [SID164549680] scored log2 vehicle/camptothecin viability 0.0139; viability with camptothecin 4.22.
FLT4 [SID164365177] scored log2 vehicle/camptothecin viability -0.423; viability with camptothecin 68.8.
FLT4 [SID164365178] showed log2 vehicle/camptothecin viability -0.228; viability with camptothecin 56.3.
After knock-down of FLT4 [SID164365181] the results were log2 vehicle/camptothecin viability -0.0665; viability with camptothecin 101.
Against FLT4 [SID164365182], the entry reads log2 vehicle/camptothecin viability -0.561; viability with camptothecin 94.
After knock-down of CACNA1B [SID164356180] the results were log2 vehicle/camptothecin viability -0.601; viability with camptothecin 99.9.
Against CACNA1B [SID164356182], the entry reads log2 vehicle/camptothecin viability -0.147; viability with camptothecin 79.4.
For CACNA1B [SID164356183], the entry reads log2 vehicle/camptothecin viability -0.335; viability with camptothecin 58.7.
With knock-down of CACNA1B [SID164356184], the screen gave log2 vehicle/camptothecin viability -0.0142; viability with camptothecin 54.5.
